# Measurements published in PubChem BioAssay AID540275 (National Center for Advancing Translational Sciences (NCATS), 2011).
# Chains of the proteins cited; added tags and fusions are not shown.
# UniProt Q8NER1, whole entry, looked up: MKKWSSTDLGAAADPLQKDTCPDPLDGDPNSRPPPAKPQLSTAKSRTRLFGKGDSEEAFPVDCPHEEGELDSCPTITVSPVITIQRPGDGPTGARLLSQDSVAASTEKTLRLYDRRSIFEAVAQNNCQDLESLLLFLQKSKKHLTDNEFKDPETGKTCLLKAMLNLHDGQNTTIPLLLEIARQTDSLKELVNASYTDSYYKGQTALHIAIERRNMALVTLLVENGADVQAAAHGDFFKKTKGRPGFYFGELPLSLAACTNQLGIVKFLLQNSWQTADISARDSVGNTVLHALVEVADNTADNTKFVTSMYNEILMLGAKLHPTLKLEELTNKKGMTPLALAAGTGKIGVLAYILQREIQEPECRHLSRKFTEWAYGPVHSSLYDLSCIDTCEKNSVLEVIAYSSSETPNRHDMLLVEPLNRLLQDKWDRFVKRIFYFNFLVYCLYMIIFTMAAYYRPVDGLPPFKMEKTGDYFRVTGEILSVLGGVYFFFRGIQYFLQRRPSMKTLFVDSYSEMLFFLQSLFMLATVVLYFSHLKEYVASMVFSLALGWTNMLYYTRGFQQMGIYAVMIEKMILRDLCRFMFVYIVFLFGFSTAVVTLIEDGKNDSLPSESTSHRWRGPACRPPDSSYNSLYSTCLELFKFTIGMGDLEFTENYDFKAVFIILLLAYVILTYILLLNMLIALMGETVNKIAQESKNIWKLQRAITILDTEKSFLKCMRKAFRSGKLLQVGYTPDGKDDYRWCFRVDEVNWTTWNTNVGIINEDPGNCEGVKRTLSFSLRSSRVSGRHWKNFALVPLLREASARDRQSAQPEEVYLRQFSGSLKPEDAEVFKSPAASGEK
# In all, about 320,000 compounds went through this assay and about 620 (0.19%) were called active. The inconclusive results got no clear call from the source; some entries with a clear call stand among them for comparison. Cut-off read from the data, not from the text of the source: active = activation above about 80%; inconclusive = between about 30% and that limit; inactive = weaker than that.
# Target: Transient receptor potential cation channel subfamily V member 1 (Homo sapiens) (UniProt Q8NER1)
# Experiment: HTS Assay for Compounds that Act as Agonists of the Vanilloid Receptor 1; note: 0% is about no effect
# Conditions: TRPV1-expressing cells, Fluo-8 calcium influx, agonist mode; at 8.33 µM, active compounds read high
# How it was run: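 Cells expressing TRPV1 were dye-loaded with Fluo-8 and read kinetically: 10 s baseline, 3 min after compound (agonist portion), then 2 min after EC20 capsaicin (allosteric enhancer portion). Calcium-bound dye fluorescence at 480/520 nm.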
row,SMILES,activation
1,O=C(COC(=O)c1ccc(Cl)nc1)NCCC1=CCCCC1,inactive: 9.34%
2,O=C(C1=C[C@@H](c2ccc3c(c2)OCO3)C[C@@H](OCc2ccc(CO)cc2)O1)N1CCOCC1,inconclusive: 52.6%
3,CCN(CC)C(=O)c1nc[nH]c1C(=O)N1CCN(C(=O)OC(C)(C)C)CC1,inactive: -4.54%
4,CCn1cnc2sc(C(=O)N(Cc3ccc(N(C)C)cc3)Cc3ccco3)c(C)c2c1=O,inconclusive: 33.9%
5,C=CCN1C(=O)/C(=C\c2ccc(C)cc2)N=C1SCC(=O)NCCC,inconclusive: 36.8%
6,COC(=O)c1cc(NC(=O)Nc2ccccc2)ccc1Cl,active: 83.2%
7,Cc1cc(C(=O)OCC(=O)NCc2ccc(F)cc2)c2ccccc2n1,inconclusive: 33.1%
8,CCCCNC(=S)N=Nc1c(O)[nH]c2ccccc12,inactive: 2.54%
9,COc1cc(NC(=O)c2cccs2)cc(OC)c1,inconclusive: 36.6%
10,CCOc1ccc(S(=O)(=O)N(C)C2CCCCC2)cc1,inconclusive: 34.1%
11,CC(C)(C)NC(=O)CSCc1ccc(Br)cc1,inconclusive: 33.9%
12,Cc1ccc(C2=NN(CC(=O)NCc3cccs3)C(=O)CC2)cc1,inconclusive: 52.1%
13,O=C(Nc1ccccc1N1CCN(c2ccc(F)cc2)CC1)c1ccccc1,inconclusive: 65.3%
14,Fc1ccccc1-c1ccc(/C=N/Nc2nc3ccccc3[nH]2)o1,inconclusive: 32.8%
15,CC1CCc2nc(NC(=O)C3CC3)sc2C1 (stereo unspecified),inconclusive: 42.8%
16,O=C(NCCc1ccccc1)C(c1ccccc1)N(C(=O)c1csnn1)C1CC1 (stereo unspecified),inactive: 2.02%
17,O=C(CCc1ccccc1)NCCSc1ccccc1,inconclusive: 31.1%
18,COCCOC(=O)C1=C(C)NC(=O)NC1c1cccs1 (stereo unspecified),inactive: -0.376%
19,CNC(=S)N1CCN(c2nc(-c3ccc(F)cc3)cs2)CC1,inconclusive: 54.9%
20,COC(=O)c1sccc1NC(=O)Nc1cccc(C(C)=O)c1,inconclusive: 44%
21,Cc1ccc(NC(=O)Nc2ccnc(-c3cccnc3)n2)cc1,inconclusive: 31.4%
22,O=C1OC(c2ccccc2)=C/C1=C/c1cccs1,inconclusive: 40.2%
23,CCCC(C)C(=O)Nc1cc(S(=O)(=O)N2CCCCC2)ccc1N1CCOCC1 (stereo unspecified),inconclusive: 41.9%
24,O=C(O)c1ccc(Cl)c(NCc2ccncc2)c1,inactive: -4.97%
25,COc1ccc(C(=O)Nc2ccc(-c3ccc(C)o3)cc2)cc1S(=O)(=O)N1CCOCC1,inactive: 0.036%
26,Cc1ccc(NC(CC(=O)c2ccccc2)c2ccc(F)cc2)cc1 (stereo unspecified),inconclusive: 34%

# A different layout for part of the listing above:
row	SMILES	activation
20	COC(=O)c1sccc1NC(=O)Nc1cccc(C(C)=O)c1	inconclusive: 44%
21	Cc1ccc(NC(=O)Nc2ccnc(-c3cccnc3)n2)cc1	inconclusive: 31.4%
22	O=C1OC(c2ccccc2)=C/C1=C/c1cccs1	inconclusive: 40.2%
23	CCCC(C)C(=O)Nc1cc(S(=O)(=O)N2CCCCC2)ccc1N1CCOCC1 (stereo unspecified)	inconclusive: 41.9%
24	O=C(O)c1ccc(Cl)c(NCc2ccncc2)c1	inactive: -4.97%
25	COc1ccc(C(=O)Nc2ccc(-c3ccc(C)o3)cc2)cc1S(=O)(=O)N1CCOCC1	inactive: 0.036%
26	Cc1ccc(NC(CC(=O)c2ccccc2)c2ccc(F)cc2)cc1 (stereo unspecified)	inconclusive: 34%
